Experimental data: US5747452A, “Method of modulating tumor cell migration using fibronectin type III peptides” (La Jolla Cancer Research Foundation, priority 1995, dated 1998)

Test system: fibronectin
Experiment: Protein-protein binding assay: 125I-III1-E to coated fibronectin
Set-up: species or system human

**Q.** With “III1 -E: Sequence ID No. 12; recombinant protein, residues 600 to 655 of human fibronectin, from pGEX-2T” as the substance, how does the “number of high affinity sites in fibronectin in comparison to fibronectin as ligand” value read?
**A.** 1000 fold more

**Q.** What about the “number of low affinity sites in fibronectin in comparison to fibronectin as ligand” value of the same substance?
**A.** ten-fold more

**Q.** And the “number of high affinity binding sites” value (Scatchard analysis)?
**A.** 1-2 binding sites per fibronectin dimer

**Q.** What about the “number of low affinity binding sites” value (Scatchard analysis) of the same substance?
**A.** approximately 10 binding sites per fibronectin dimer
